Results on 1 substance are retold here after doi:10.1101/870899.

The target of assay [1] is T1, GST-BMP2K CT#2 (851-1161) (human) (UniProt Q9NSY1).
T1 sequence: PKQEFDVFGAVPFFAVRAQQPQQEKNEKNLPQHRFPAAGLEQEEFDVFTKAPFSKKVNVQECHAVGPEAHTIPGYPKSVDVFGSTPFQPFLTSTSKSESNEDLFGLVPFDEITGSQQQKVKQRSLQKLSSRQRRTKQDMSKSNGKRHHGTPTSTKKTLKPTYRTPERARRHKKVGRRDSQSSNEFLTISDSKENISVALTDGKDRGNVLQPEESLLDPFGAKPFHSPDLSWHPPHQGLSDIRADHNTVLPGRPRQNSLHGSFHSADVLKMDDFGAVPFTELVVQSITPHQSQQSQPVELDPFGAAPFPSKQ
Description: pull-down.

Assay [2] concerns the target T2, GST-BMP2K-CT#1 (561-850) (human) (UniProt Q9NSY1).
T2 sequence: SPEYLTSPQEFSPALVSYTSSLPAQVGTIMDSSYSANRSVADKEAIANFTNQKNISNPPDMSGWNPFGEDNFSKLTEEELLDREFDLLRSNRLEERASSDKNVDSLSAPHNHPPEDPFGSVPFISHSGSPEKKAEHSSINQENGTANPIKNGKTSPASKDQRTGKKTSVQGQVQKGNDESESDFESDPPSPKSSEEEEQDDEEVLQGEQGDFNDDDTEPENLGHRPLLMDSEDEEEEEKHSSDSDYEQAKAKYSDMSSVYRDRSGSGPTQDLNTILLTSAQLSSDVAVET
Description: pull-down.

No constants are given. Whether binding was seen depends on the method and setting. In cells and extracts the contact can be indirect. Where a sequence is shown, tags or fusion partners need not be part of it.

Take FCHO (human (endogenous in HeLa)): the binding entry in assay [1] and in assay [2] was “no binding” throughout.
